Values from PubChem BioAssay AID1259326 (Drosophila RNAi Screening Center, 2017)

Assay: 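Autophagy genes whose loss alters cell survival in toxic zinc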
Cell system: Drosophila S2R+ cells
Reagents: long dsRNA against Drosophila genes
Time to read-out: about 5 days (4 days of RNAi, then 1 day of zinc)
Treatment: zinc chloride added to 15 mM final for one day
Detection: 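Luminescent ATP signal marks surviving cells, read after RNAi for 4 days then 15 mM zinc chloride for 1 day; z-scores are replicate means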
Direction: averaged z-score: higher = more ATP than other wells, i.e. more surviving cells, after zinc; ATP luminescence: higher = more ATP, i.e. more surviving cells
Rule for the call: 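Called active when the averaged z-score lies outside -1.5 to 1.5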
In all, the deposit lists 573 reagents; shown is an unselected part. Of all reagents, 39 (6.8%) are marked active. 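All actives have raised ATP, meaning more surviving cells; in these data active calls sit at averaged z-scores near 1.5 or above.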 The raw values are shown without normalisation. The numbers tell different reagents against one gene apart. A plus sign joins genes that one reagent is predicted to hit. Reagent sequences are not shown. Not stated in the record: the amount of reagent.

pic (piccolo) #1
- averaged z-score: 4.21
- ATP luminescence, replicate 1: 1.80e5
- ATP luminescence, replicate 2: 1.59e5
- activity call: active

pic (piccolo) #2
- averaged z-score: 4.29
- ATP luminescence, replicate 1: 1.81e5
- ATP luminescence, replicate 2: 1.29e5
- activity call: active

pic (piccolo) #3
- averaged z-score: 4
- ATP luminescence, replicate 1: 1.39e5
- ATP luminescence, replicate 2: 1.54e5
- activity call: active

Cyt-c1 (Cytochrome c1) #1
- averaged z-score: -0.307
- ATP luminescence, replicate 1: 81549
- ATP luminescence, replicate 2: 79493
- activity call: inactive

Cyt-c1 (Cytochrome c1) #2
- averaged z-score: -0.0397
- ATP luminescence, replicate 1: 78274
- ATP luminescence, replicate 2: 75776
- activity call: inactive

Cyt-c1 (Cytochrome c1) #3
- averaged z-score: -0.323
- ATP luminescence, replicate 1: 65645
- ATP luminescence, replicate 2: 75153
- activity call: inactive

shi (shibire) #1
- averaged z-score: -0.228
- ATP luminescence, replicate 1: 89395
- ATP luminescence, replicate 2: 70651
- activity call: inactive

shi (shibire) #2
- averaged z-score: -0.282
- ATP luminescence, replicate 1: 72105
- ATP luminescence, replicate 2: 80064
- activity call: inactive

shi (shibire) #3
- averaged z-score: 0.0836
- ATP luminescence, replicate 1: 61352
- ATP luminescence, replicate 2: 79937
- activity call: inactive

CCT7 (Chaperonin containing TCP1 subunit 7) #1
- averaged z-score: -0.0428
- ATP luminescence, replicate 1: 89824
- ATP luminescence, replicate 2: 87937
- activity call: inactive

CCT7 (Chaperonin containing TCP1 subunit 7) #2
- averaged z-score: 0.335
- ATP luminescence, replicate 1: 87920
- ATP luminescence, replicate 2: 72448
- activity call: inactive

CCT7 (Chaperonin containing TCP1 subunit 7) #3
- averaged z-score: 0.656
- ATP luminescence, replicate 1: 80526
- ATP luminescence, replicate 2: 93765
- activity call: inactive

Gfat1 (Glutamine:fructose-6-phosphate aminotransferase 1) #1
- averaged z-score: 0.00471
- ATP luminescence, replicate 1: 89001
- ATP luminescence, replicate 2: 85090
- activity call: inactive

Gfat1 (Glutamine:fructose-6-phosphate aminotransferase 1) #2
- averaged z-score: -0.586
- ATP luminescence, replicate 1: 74112
- ATP luminescence, replicate 2: 55453
- activity call: inactive

Gfat1 (Glutamine:fructose-6-phosphate aminotransferase 1) #3
- averaged z-score: -0.115
- ATP luminescence, replicate 1: 63101
- ATP luminescence, replicate 2: 81179
- activity call: inactive

CG46280 + CG46281 #1
- averaged z-score: 0.102
- ATP luminescence, replicate 1: 89601
- ATP luminescence, replicate 2: 84661
- activity call: inactive

CG46280 + CG46281 #2
- averaged z-score: -0.271
- ATP luminescence, replicate 1: 66394
- ATP luminescence, replicate 2: 71556
- activity call: inactive

FANCI (Fanconi anemia complementation group I) #1
- averaged z-score: -0.295
- ATP luminescence, replicate 1: 75090
- ATP luminescence, replicate 2: 84987
- activity call: inactive

FANCI (Fanconi anemia complementation group I) #2
- averaged z-score: -0.433
- ATP luminescence, replicate 1: 64415
- ATP luminescence, replicate 2: 63684
- activity call: inactive

PolrMT (RNA polymerase mitochondrial) #1
- averaged z-score: -0.11
- ATP luminescence, replicate 1: 91598
- ATP luminescence, replicate 2: 76119
- activity call: inactive

PolrMT (RNA polymerase mitochondrial) #2
- averaged z-score: 0.0163
- ATP luminescence, replicate 1: 88949
- ATP luminescence, replicate 2: 56499
- activity call: inactive

PolrMT (RNA polymerase mitochondrial) #3
- averaged z-score: -0.4
- ATP luminescence, replicate 1: 66960
- ATP luminescence, replicate 2: 67827
- activity call: inactive

sima (similar) #1
- averaged z-score: -0.236
- ATP luminescence, replicate 1: 93598
- ATP luminescence, replicate 2: 70493
- activity call: inactive

sima (similar) #2
- averaged z-score: 0.00023
- ATP luminescence, replicate 1: 71951
- ATP luminescence, replicate 2: 77494
- activity call: inactive

sima (similar) #3
- averaged z-score: 0.285
- ATP luminescence, replicate 1: 93262
- ATP luminescence, replicate 2: 75879
- activity call: inactive

Part of the list above, set out differently:
gene,dsRNA no.,averaged z-score,"ATP luminescence, replicate 1","ATP luminescence, replicate 2",activity call
CCT7 (Chaperonin containing TCP1 subunit 7),2,0.335,87920,72448,inactive
CCT7 (Chaperonin containing TCP1 subunit 7),3,0.656,80526,93765,inactive
Gfat1 (Glutamine:fructose-6-phosphate aminotransferase 1),1,0.00471,89001,85090,inactive
